This passage reports binding results from article PMC6907878.

By UniProt entry, the sequences of proteins in these tests, tags left out. Where a name states a change or a piece, a line headed by the entry shows the natural chain unless it says otherwise. Residues count along the entry.
UniProt P00282, residues 21-148: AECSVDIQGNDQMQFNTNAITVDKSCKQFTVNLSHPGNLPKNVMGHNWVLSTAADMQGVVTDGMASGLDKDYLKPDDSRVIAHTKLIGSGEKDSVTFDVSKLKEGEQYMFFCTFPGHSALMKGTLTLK
UniProt G3XD89: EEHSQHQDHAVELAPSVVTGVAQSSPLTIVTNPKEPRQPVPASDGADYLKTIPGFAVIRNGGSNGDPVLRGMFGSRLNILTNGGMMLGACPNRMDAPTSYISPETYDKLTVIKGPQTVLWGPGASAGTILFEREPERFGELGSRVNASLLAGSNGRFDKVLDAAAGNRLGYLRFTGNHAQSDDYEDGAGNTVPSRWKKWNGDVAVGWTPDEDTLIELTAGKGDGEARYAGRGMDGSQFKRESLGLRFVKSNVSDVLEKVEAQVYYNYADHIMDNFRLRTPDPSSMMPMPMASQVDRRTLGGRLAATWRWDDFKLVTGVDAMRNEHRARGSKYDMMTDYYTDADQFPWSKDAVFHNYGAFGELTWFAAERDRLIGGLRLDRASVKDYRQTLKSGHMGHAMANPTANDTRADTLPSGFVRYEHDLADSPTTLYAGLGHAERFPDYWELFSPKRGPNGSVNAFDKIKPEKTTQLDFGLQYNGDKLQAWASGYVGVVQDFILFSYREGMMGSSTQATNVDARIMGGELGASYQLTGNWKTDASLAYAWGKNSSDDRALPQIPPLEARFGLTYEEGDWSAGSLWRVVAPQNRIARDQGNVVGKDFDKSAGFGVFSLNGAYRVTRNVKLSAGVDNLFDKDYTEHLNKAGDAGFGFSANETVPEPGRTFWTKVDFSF

These are yes or no findings as the source states them, for the method shown. Binding can be weak; no strength is given. For some assays here: In cells and extracts the contact can be indirect.

Assay [1] has as its target Azu-Flag (Pseudomonas aeruginosa PAO1) (UniProt P00282). Put plainly: co-IP; OprC-His6 and Azu-Flag co-expressed in PAO1; lysate (20 mM Tris, 150 mM NaCl, 0.1% Triton X-100, pH 8.0) incubated with anti-Flag M2 magnetic beads 4 h at 4 C; washed with 500 mM NaCl; blots against Flag or His antibody.
The target of assay [2] is GST-Azu (glutathione S-transferase-tagged azurin) (Pseudomonas aeruginosa PAO1) (UniProt P00282). Kind of assay: pull-down; 100 ug purified GST or GST-Azu on glutathione beads, 20 ug His6-OprC added, 4 h at 4 C; washed with GST binding buffer containing 500 mM NaCl; immunoblot; both purified.

Turning to “OprC-His6 (expressed in P. aeruginosa from pMMB67H-oprC-His6) (from UniProt G3XD89)”, in assay [1], the binding result is “binds”. Regarding “His6-OprC (recombinant, refolded) (from UniProt G3XD89)”, the binding result in assay [2] is on record as “binds”.
